Test results taken from patent publication US12240816B2, “Deuterated compounds and uses thereof” (Aldeyra Therapeutics, Inc., priority 2015, dated 2025).
Not every detail of the peptide structures is certain; ends, links or a residue may be inferred. Where no end group is shown, it is not given here.

The chains behind the UniProt entries cited, without tags or fusion partners.
UniProt Q9UQM7, whole entry: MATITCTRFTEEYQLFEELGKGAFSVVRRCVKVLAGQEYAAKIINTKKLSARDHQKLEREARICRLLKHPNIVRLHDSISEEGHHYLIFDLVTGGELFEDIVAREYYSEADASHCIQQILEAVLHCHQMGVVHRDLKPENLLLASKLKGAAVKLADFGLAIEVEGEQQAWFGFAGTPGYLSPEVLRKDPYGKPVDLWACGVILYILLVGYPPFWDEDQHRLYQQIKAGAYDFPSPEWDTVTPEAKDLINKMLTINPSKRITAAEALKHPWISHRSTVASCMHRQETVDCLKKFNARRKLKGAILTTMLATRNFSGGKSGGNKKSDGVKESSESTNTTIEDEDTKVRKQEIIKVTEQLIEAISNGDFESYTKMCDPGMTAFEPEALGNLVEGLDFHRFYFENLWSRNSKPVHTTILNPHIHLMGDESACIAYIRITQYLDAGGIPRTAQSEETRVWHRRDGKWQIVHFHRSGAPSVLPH

Molecular target: enzyme and uptake assay panel targets (Table 36) (Homo sapiens, UniProt Q9UQM7)
Assay type: biochemical
Conditions: CaMK2α (h); reference compound

KKALRRQEAVDAL [AIP]
nH: 1.1
